Measured values: PubChem BioAssay AID504444 (National Center for Advancing Translational Sciences (NCATS), 2011)
Screen size: about 360,000 compounds; about 7,500 (2.1%) were called active. Inconclusive results, whose numbers are uncertain, are shown with a selection of clear calls. Calls come from the whole dose curve; as a rule, active = well fitted inhibition curve with a large enough effect; inconclusive = small, poorly fitted or top-dose-only effect, or effect the other way; inactive = flat fitted curve, though single readings scatter. Potencies of inconclusive entries are doubtful fits and often do not repeat.

assay: Nrf2 qHTS screen for inhibitors; conditions: A549 ARE-Fluc reporter, luciferase luminescence, 18-24 h; activity change, negative = inhibition: at 46 µM (top of the series); note: nearly all actives have a fitted effect of over 60% in size
Procedure, shortened: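 A549 ARE_Fluc cells (5000/well, 5% FBS OPTI-MEM) pre-incubated 2 h, then treated with compounds 18-24 h at 37C/5% CO2 in concentration-response. CellTiter-Fluor viability read first; BugLite luciferase luminescence after 15 min at room temperature gives Nrf2 activity.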
% is set by controls: 0 for no effect and ±100 for the full control effect; potency is the fitted concentration of half-maximal effect.

Row | Compound | Potency | activity change, negative = inhibition
1 | CC/C(=N\NC(=S)Nc1cc(C)ccc1C)c1ccc(OC(F)F)cc1 | inactive | 
2 | Cc1nnc(NC(=O)Nc2cccc(Cl)c2)s1 | inactive | 
3 | Cc1ccc2nc(-c3ccc(NC(=O)CCS(=O)(=O)c4ccccc4)cc3)sc2c1 | inconclusive: 1.84 µM [activator, partial curve, poor fit] | 
4 | CC(C)NC(=S)N1CCN(C(c2ccccc2)c2ccccc2)CC1 | inactive | 
5 | Cc1cc(C)nc(/N=c2/ssnc2Cl)c1 | inconclusive: 20.6 µM [falling, single point] | 
6 | Cc1cc(N2CCOCC2)nc2ccc(NC(=O)CCC(=O)N3CCC(C)CC3)cc12 | inconclusive: 3.26 µM [activator, full curve] | 
7 | CCN(C(=O)COC(=O)c1ccccc1Nc1ccccc1)c1c(N)n(Cc2ccccc2)c(=O)[nH]c1=O | inconclusive: 18.4 µM [falling, single point] | 
8 | CCOC(=O)c1c(N)sc(C(=O)OCCOC)c1C | inconclusive: 13 µM [activator, partial curve, poor fit] | 
9 | COc1cc(OC)c2c(-c3ccccc3)cc(=O)oc2c1C(CC(=O)N1CCCC1)c1ccc2c(c1)OCO2 (centres undefined) | inconclusive: 29.1 µM [falling, single point] | 
10 | COc1ccc(-c2cn3cccc(C)c3n2)cc1Br | inconclusive: 8.2 µM [activator, partial curve] | 
11 | CNc1nc2c(c(=O)n(C)c(=O)n2C)n1CC(O)COc1ccc(OC)cc1 (centres undefined) | inconclusive: 16.4 µM [falling, partial curve, poor fit] | 
12 | O=C(Nc1cc2c(cc1Cl)OCCCO2)c1ccc(F)cc1 | inconclusive: 10.3 µM [activator, partial curve] | 
13 | COc1ccccc1-c1c(C(F)(F)F)oc2cc(OS(C)(=O)=O)ccc2c1=O | active: 8.2 µM | 
14 | CCCSc1nc2sc3c(c2c(=O)n1-c1ccc(C)c(Cl)c1)CCN(C(C)=O)C3 |  | inactive: -6.65% [at 9.27 µM]
15 | COc1cc(NC(=O)c2ccccc2Cl)ccc1NC(=O)c1cccs1 | inconclusive: 18.4 µM [activator, single point] | 
16 | COc1ccc(SCC(Cc2ccccc2)N2CCN(CCc3ccccc3)CCC2=O)cc1 (centres undefined) | inactive | 
17 | C/C(CCC(C)C)=N\Nc1ccc(S(N)(=O)=O)cc1[N+](=O)[O-] | inconclusive: 20.6 µM [falling, partial curve, poor fit] | 
18 | COC(=O)C1=CN(Cc2ccc(OC)cc2)C=C(C(=O)OC)C1c1cc(OC)c(OC)c(OC)c1 | inconclusive: 32.6 µM [falling, partial curve, poor fit] | 
19 | COc1cc(OC)cc(-c2n[nH]c(=S)n2-c2ccc3c(c2)OCCO3)c1 | inconclusive: 18.4 µM [falling, partial curve, poor fit] | 
20 | CCCCCOC(=O)c1c(N)n(CCOC)c2nc3ccccc3nc12 | inconclusive: 25.9 µM [falling, partial curve, poor fit] | 
21 | CCN(Cc1ccccc1)C(=O)Cn1c(=O)n(-c2cccc(C)c2)c(=O)c2c1c1cc(OC)ccc1n2C | inconclusive: 3.66 µM [falling, partial curve, poor fit] | 
22 | CCOC(=O)[C@@H](C)N(Cc1ccc(OC)cc1)S(=O)(=O)N(Cc1ccccc1)[C@H](C(=O)OC)C(C)C | inconclusive: 23.1 µM [falling, single point] | 

Laid out differently: results already given
COC(=O)C1=CN(Cc2ccc(OC)cc2)C=C(C(=O)OC)C1c1cc(OC)c(OC)c(OC)c1
  Potency: inconclusive: 32.6 µM [falling, partial curve, poor fit]
COc1cc(OC)cc(-c2n[nH]c(=S)n2-c2ccc3c(c2)OCCO3)c1
  Potency: inconclusive: 18.4 µM [falling, partial curve, poor fit]
CCCCCOC(=O)c1c(N)n(CCOC)c2nc3ccccc3nc12
  Potency: inconclusive: 25.9 µM [falling, partial curve, poor fit]

(continued)

Row | Compound | Potency | activity change, negative = inhibition
23 | CCCn1c2c(c(O)c(C(=O)Nc3ncccc3C)c1=O)CCCC2 | inconclusive: 14.6 µM [falling, partial curve] | 
24 | O=[N+]([O-])c1c(NCCCO)cc(N2CCN(Cc3ccc4c(c3)OCO4)CC2)c2nonc12 | inconclusive: 20.6 µM [falling, single point] | 
25 | CCOC(=O)C1=C(CN2CCN(C)CC2)NC(=O)NC1c1ccc(F)cc1 (centres undefined) | inconclusive: 29.1 µM [activator, single point] | 
26 | CCCn1c(NC(=S)Nc2ccccc2)nc2ccccc21 | inactive | 
27 | COc1ccc(S(=O)(=O)NCCSc2ccccc2)cc1OC | inconclusive: 16.4 µM [falling, single point] | 
28 | Cc1cc(Cl)c(S(=O)(=O)NC2CCCC2)cc1OCC(N)=O | inconclusive: 32.6 µM [falling, single point] | 
29 | C/C(=N\NC(=O)c1ccccc1O)C1CC1 | inconclusive: 29.1 µM [activator, single point] | 
30 | CCCc1ccc(OCc2ccc(C(=O)N3CCCC3)o2)cc1 | inconclusive: 32.6 µM [falling, single point] | 
31 | CCN1CCN(C(=O)c2ccc(Cn3c(=O)[nH]c4cc(OC)c(OC)cc4c3=O)cc2)CC1 | inactive | 
32 | COc1cccc2sc(Nc3nc4ccc(NC(C)=O)cc4s3)nc12 | inconclusive: 29.1 µM [falling, single point] | 
33 | CC(Nc1nc(N2CCCCC2)nc2ccccc12)c1ccccc1 (centres undefined) | inconclusive: 23.1 µM [falling, partial curve, poor fit] | 
34 | CCN(CC)S(=O)(=O)c1ccc2oc(Nc3ccccc3)nc2c1 | inconclusive: 10.3 µM [activator, partial curve] | 
35 | CCn1c(CN2CCCCC2)nc2cc(NC(=O)c3cccc([N+](=O)[O-])c3)ccc21 | inconclusive: 29.1 µM [falling, single point] | 
36 | CCCC(C)NC(=O)c1cc(S(=O)(=O)N2CCCCCC2)ccc1OC (centres undefined) | inconclusive: 3.66 µM [falling, partial curve, poor fit] | 
37 | NC(=O)COC(=O)CCCc1c[nH]c2ccccc12 | inconclusive: 2.59 µM [activator, partial curve, poor fit] | 
38 | Cc1ccc(CCNC(=O)CSCc2nc(-c3ccc(C)cc3)oc2C)cc1 | inconclusive: 29.1 µM [falling, single point] | 
39 | COc1ccc(CCN2CC(C(=O)NCCc3ccccc3C(F)(F)F)CCC2=O)cc1 (centres undefined) | inconclusive: 20.6 µM [activator, single point] | 
40 | COc1ccc(-c2ccc3oc(-c4ccc(OC)cc4)c(C#CCO)c3c2)cc1 | active: 8.2 µM | 
41 | CCOc1ccc(-c2nnc(SCC(=O)Nc3cc(C)ccc3OC)o2)cc1 | inconclusive: 8.2 µM [activator, partial curve] | 
42 | CCC(Sc1nc2ncccc2[nH]1)C(=O)NC1CCC(C)CC1 (centres undefined) | inconclusive: 20.6 µM [falling, partial curve, poor fit] | 
43 | O=C(NCCc1ccco1)c1nn(Cc2ccccc2)c(=O)c2ccccc12 | inconclusive: 2.06 µM [activator, partial curve, poor fit] | 
44 | Cc1ccc2nc(C)c3c(c2c1)OC(C(C)(Cl)Br)C3 (centres undefined) | inconclusive: 18.4 µM [falling, single point] | 

Row | Compound | Potency | activity change, negative = inhibition
45 | CC(C)c1ccc(NC(=O)Cn2c3ncccc3c(=O)n2-c2ccccc2)cc1 | inactive | 
46 | COc1ccccc1C(=O)CN1C(=O)NC2(CCCc3ccccc32)C1=O (centres undefined) | inconclusive: 29.1 µM [activator, single point] | 
47 | COc1ccccc1C(=O)NCC(=O)N/N=C/c1cc(Br)ccc1OCc1ccccc1 | inconclusive: 20.6 µM [falling, single point] | 
48 | Cn1c2c(c(=O)n(C)c1=O)C(C(F)(F)F)(C(F)(F)F)N=C(CCC1CCCCC1)N2 | inconclusive: 18.4 µM [falling, partial curve, poor fit] | 
49 | COc1ccc(S(=O)(=O)N=Nc2c(O)[nH]c3ccccc23)cc1 | inactive | 
50 | CCn1c(=O)n(CC)c2cc(N3CCCC3)c(NC(=O)Nc3cc(C)cc(C)c3)cc21 | inconclusive: 18.4 µM [falling, single point] | 
51 | COc1ccccc1N1CCN(C(=O)c2ccc(Nc3nc4ccccc4n4nnnc34)cc2)CC1 | inactive | 
52 | Cc1cccc(-c2nnc(SCC(=O)N3CCCCC3)o2)c1 | inconclusive: 0.82 µM [activator, partial curve] | 
53 | Cc1cc(C(=O)OCc2nc3ccccc3s2)c(C)o1 | inconclusive: 20.6 µM [activator, single point] | 
54 | Cc1ccc(NC(=O)/C(Cl)=C\c2ccccc2)cc1 | inconclusive: 10.3 µM [activator, partial curve] | 
55 | O=C(N/N=C(\c1ccccc1)c1ccccn1)c1cccc([N+](=O)[O-])c1 | active: 9.2 µM | 
56 | Cc1nc2ccn(Cc3ccco3)c(=O)c2cc1C(=O)N1CCN(c2ccc(F)cc2)CC1 | inconclusive: 29.1 µM [activator, single point] | 
57 | O=S(=O)(c1ccc(F)cc1)N1CCN(c2nc(-c3ccc(F)cc3)cs2)CC1 | inconclusive: 20.6 µM [falling, partial curve, poor fit] | 
58 | O=C(c1ccc2c(=O)n(C3CCCC3)c(=S)[nH]c2c1)N1CCCCCC1 | active: 16.4 µM | 
59 | COc1cccc(CNC(=O)C(C)n2c(=O)cc(-c3ccccc3)c3c(C)nn(C)c32)c1 (centres undefined) | inconclusive: 5.8 µM [falling, partial curve, poor fit] | 
60 | O=C(Cn1[nH]c(=O)c2ccccc2c1=O)N1CC=C(c2ccccc2)CC1 | inconclusive: 3.16 µM [falling, partial curve, poor fit] | 
61 | O=C(Cn1cc(SCc2c(F)cccc2Cl)c2ccccc21)N1CCCC1 | inconclusive: 5.17 µM [activator, full curve] | 
62 | NNC(=O)c1cc(O)c(O)c(O)c1 | inconclusive: 25.9 µM [falling, single point] | 
63 | Cc1ccc(NC(=S)NC(=O)C2CCC2)cc1C | inconclusive: 25.9 µM [activator, single point] | 
64 | O=C(COC(=O)c1ccc(O)cc1)Nc1ccc2c(c1)OCCO2 | inconclusive: 29.1 µM [activator, single point] | 
